Measurements reported in the supplement of paper PMC12889115.
Some of the results follow. Values are raw readings; no control value is given beside them.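 First-pass screen: polymyxin B was added at a level that permeabilizes the Salmonella outer membrane while sparing the inner membrane. DMSO wells, with and without polymyxin B, defined maximum growth. Because plates differed from one another, each plate's data were ranked separately and the compounds with the lowest OD600 were carried forward as hits.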

Test system: Salmonella enterica serovar Typhimurium SL1344
Experiment: bacterial growth OD600 after 18 h with compound and polymyxin B; higher = more bacterial growth (less inhibition)
Details: 50 µM, Mueller-Hinton broth

Row | Compound | bacterial growth OD600 (polymyxin B 0.75 µg/mL) | bacterial growth OD600 (polymyxin B 1 µg/mL)
1 | O=C(CCC1(Cc2ccc3ccccc3c2)CCC(=O)N1)NCc1cnn(-c2ccc(F)cc2)c1 (stereo not given) | 0.892 | –
2 | COc1ccccc1NC(=O)Nc1ccnn1C1CCN(C(=O)CCC2(C)CC2)CC1 | 0.729 | –
3 | CCOC(=O)C1(Cc2ccc(F)cc2)CCCN(C(=O)c2n[nH]c(=O)c3ccccc23)C1 (stereo not given) | – | 1.09
4 | CCOC(=O)N1CCN(C(=O)c2cc(NC(C)=O)c3c(c2)nc(-c2ccccc2F)n3CC)CC1 | 1.05 | –
5 | COCc1ccc(C(=O)NCc2nc(-c3cccc(NC(=O)C4CCCN(C)C4)c3)oc2C)s1 (stereo not given) | 0.904 | –
6 | Cc1ccccc1N1C(=O)CN(Cc2c(C)n(C)n(-c3ccccc3)c2=O)CC1C (stereo not given) | 0.829 | –
7 | COCc1ccc(C(=O)N2CCc3[nH]nc(-c4ccc(C(F)(F)F)cc4)c3C2)o1 | 0.636 | –
8 | COc1cccc(-c2ccnc(-n3ncc(C(=O)N4CCN(c5ccccc5)CC4)c3C3CC3)n2)c1 | 0.766 | –
9 | OCC1(Cc2ccccc2Cl)CCN(CC#Cc2ccccc2)CC1 | – | 0.503
10 | CCc1csc(CCNC(=O)C2CCC(=O)N(Cc3cccc(C(F)(F)F)c3)C2)n1 (stereo not given) | – | 0.849
11 | COc1cccc(OC)c1CNC1COc2c(cccc2OC)C1 (stereo not given) | – | 0.857
12 | Cc1cc(CNC(=O)Cn2cncn2)c2[nH]c(-c3ccccc3)c(C)c2c1 | – | 0.939
13 | CCn1cc(CNc2nc3nonc3nc2N2CCCCCC2)cn1 | – | 0.883
14 | CC1(C)Cc2nc(N3CCOCC3)ncc2C(NC(=O)CCc2ccccn2)C1 (stereo not given) | 0.866 | –
15 | Cc1nc(C(=O)N2CCOc3ccc(CN4CCN(c5ccc(F)cc5)CC4)cc3C2)cs1 | 0.748 | –
16 | CCOC(=O)C1(C/C=C/c2ccccc2)CCCN(C(=O)C(=O)c2ccccc2)C1 (stereo not given) | – | 0.679
17 | O=C1CCCN1CC1CCN(C(=O)c2ccc(NC3CC3)nc2)CC1 | – | 1.01
18 | COc1ccc(CNC(=O)CCC2CCCN(Cc3cc4ccccc4o3)C2)c(OC)c1 (stereo not given) | – | 1.14
19 | O=C(CCc1ccccc1)N1CCCC(c2[nH]ncc2-c2ccc(F)c(F)c2)C1 (stereo not given) | 0.023 | –
20 | COCC1CCN(CC2(O)CCCN(Cc3ccc(F)cc3)C2=O)CC1 (stereo not given) | – | 1.02
21 | Cc1nc(C(=O)N2CCC(C3(Cc4cccc(F)c4)NC(=O)N(CC(C)C)C3=O)CC2)cs1 (stereo not given) | 0.819 | –
22 | O=C(Cn1cc(NC(=O)COc2ccccc2)cn1)NCCc1ccco1 | 0.972 | –
23 | COC(=O)c1cc(CNC(=O)C2(c3ccccc3)CCCCC2)cc(NC(=O)c2cc(C)nn2C)c1 | 0.537 | –
24 | CC(C)CCC(=O)N1CCC(C2(Cc3ccc(F)cc3)NC(=O)N(CC3CCCO3)C2=O)CC1 (stereo not given) | 0.797 | –
25 | COc1ccc(CC2(CCC(=O)NCCc3ccc(Cl)cc3)CCC(=O)N2)c2ccccc12 (stereo not given) | 0.084 | –
26 | COCC(C)Nc1ccc(-c2nc(-c3cccc(OC)c3OC)no2)cn1 (stereo not given) | 0.775 | –
27 | CC(=O)C1CCCN(C(=O)c2cc(NS(=O)(=O)N(C)C)cc3nc(CC(C)C)n(C)c23)C1 (stereo not given) | 0.847 | –
28 | Cc1oc(-c2ccc(NC(=O)Cc3ccccc3)cc2)nc1CNC(=O)Cc1cccc2ccccc12 | 0.833 | –
29 | CCc1ccc(CN(C)C(=O)C2CCC(=O)N(CCCN3CCCC3=O)C2)cc1 (stereo not given) | – | 0.932
30 | CCOC(=O)C1(Cc2cccc(OC)c2)CCCN(S(=O)(=O)c2cccs2)C1 (stereo not given) | – | 0.566

Single entries from the list:
CC(C)CCC(=O)N1CCC(C2(Cc3ccc(F)cc3)NC(=O)N(CC3CCCO3)C2=O)CC1 (stereo not given) | bacterial growth OD600 (polymyxin B 0.75 µg/mL): 0.797
COCc1ccc(C(=O)N2CCc3[nH]nc(-c4ccc(C(F)(F)F)cc4)c3C2)o1 | bacterial growth OD600 (polymyxin B 0.75 µg/mL): 0.636
